Like-named read-outs stand apart in the source and are kept apart here. Results are given in words; binding and its absence hold for the method and conditions named. Binding seen in cells or lysates may run through a third protein. Some results given as binding are weak or reduced against the parent protein; the word gives no strength. For some of these results: Sequences can lack the tags named with a protein. Blank lines part the entries; values can stand above or below the molecule they belong to.
Key:
[1] = biological target: T1, Mff, endogenous (human (endogenous in 293T)) (UniProt Q9GZY8); test: co-IP; endogenous levels; 293T lysates, goat anti-Mff antibody (goat normal IgG as negative control), immunoblot; also after MIEF1/2 siRNA or in MIEF1/2 DKO cells (Mff-Drp1 severely reduced) and after Drp1 siRNA (MIEF-Mff not disrupted)
T1 sequence: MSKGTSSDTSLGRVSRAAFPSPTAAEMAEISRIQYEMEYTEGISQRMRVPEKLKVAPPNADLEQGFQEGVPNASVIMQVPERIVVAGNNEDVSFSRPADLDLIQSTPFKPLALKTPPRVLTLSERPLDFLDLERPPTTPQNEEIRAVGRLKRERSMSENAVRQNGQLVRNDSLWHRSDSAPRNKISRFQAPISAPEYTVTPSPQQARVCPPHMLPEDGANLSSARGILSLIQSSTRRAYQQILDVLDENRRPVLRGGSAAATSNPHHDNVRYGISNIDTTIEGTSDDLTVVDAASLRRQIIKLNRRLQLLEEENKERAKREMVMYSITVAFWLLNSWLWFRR

Amino acid sequences for entries named in this document (tags omitted).
UniProt O00429: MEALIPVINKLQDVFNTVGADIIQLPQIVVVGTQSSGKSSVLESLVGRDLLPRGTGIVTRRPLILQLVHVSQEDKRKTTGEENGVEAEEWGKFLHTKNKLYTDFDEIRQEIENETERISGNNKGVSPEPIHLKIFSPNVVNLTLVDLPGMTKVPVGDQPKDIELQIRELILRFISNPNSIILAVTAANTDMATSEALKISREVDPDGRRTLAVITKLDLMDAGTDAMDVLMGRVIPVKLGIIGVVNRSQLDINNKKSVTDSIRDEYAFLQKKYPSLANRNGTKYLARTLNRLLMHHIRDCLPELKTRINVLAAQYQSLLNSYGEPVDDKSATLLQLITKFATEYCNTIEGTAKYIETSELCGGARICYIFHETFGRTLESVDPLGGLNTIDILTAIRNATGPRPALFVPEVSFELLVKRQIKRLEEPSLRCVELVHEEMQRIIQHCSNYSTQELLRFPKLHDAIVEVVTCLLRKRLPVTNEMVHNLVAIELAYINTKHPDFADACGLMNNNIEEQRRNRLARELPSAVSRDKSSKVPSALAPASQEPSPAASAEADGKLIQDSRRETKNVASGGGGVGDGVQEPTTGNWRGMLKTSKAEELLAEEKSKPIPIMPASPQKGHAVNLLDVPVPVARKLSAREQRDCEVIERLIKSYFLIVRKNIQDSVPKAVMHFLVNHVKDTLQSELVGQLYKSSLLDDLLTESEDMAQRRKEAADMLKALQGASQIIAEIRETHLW

MIEF1-V5 [2] = biological target: MIEF1-V5 (UniProt Q9NQG6); test: co-IP; competition by co-expression: 293T co-transfected with 0.3 µg MIEF1-V5 or MIEF2-V5 and Flag-Mff in different amounts; lysates, anti-V5 agarose, immunoblot
MIEF2-V5 [3] = biological target: T2, MIEF2-V5 (UniProt Q96C03); test: as above
T2 sequence: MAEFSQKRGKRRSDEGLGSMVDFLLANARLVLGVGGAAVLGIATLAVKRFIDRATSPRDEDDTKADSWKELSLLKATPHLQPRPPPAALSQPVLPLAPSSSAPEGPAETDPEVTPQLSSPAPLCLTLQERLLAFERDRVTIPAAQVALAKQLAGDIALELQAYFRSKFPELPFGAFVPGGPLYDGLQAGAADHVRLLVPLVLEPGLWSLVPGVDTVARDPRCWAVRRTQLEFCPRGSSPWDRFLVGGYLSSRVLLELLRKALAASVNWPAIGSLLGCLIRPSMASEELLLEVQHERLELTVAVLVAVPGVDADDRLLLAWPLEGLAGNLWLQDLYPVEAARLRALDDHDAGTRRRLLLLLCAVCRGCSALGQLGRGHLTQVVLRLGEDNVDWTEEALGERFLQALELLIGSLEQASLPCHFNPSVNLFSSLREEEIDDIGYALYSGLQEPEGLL

MIEF1-V5 [4] = biological target: MIEF1-V5 (UniProt Q9NQG6); test: co-IP; 293T transfected with V5-tagged MIEF1 or MIEF2 (wild type or deletion mutants), alone or with Mff plasmid; also after Mff siRNA or Drp1 siRNA; lysates, anti-V5 beads, immunoblot
MIEF1^Δ160–169 [5] = biological target: T3, MIEF1^Δ160–169 (UniProt Q9NQG6); test: as above
T3 sequence: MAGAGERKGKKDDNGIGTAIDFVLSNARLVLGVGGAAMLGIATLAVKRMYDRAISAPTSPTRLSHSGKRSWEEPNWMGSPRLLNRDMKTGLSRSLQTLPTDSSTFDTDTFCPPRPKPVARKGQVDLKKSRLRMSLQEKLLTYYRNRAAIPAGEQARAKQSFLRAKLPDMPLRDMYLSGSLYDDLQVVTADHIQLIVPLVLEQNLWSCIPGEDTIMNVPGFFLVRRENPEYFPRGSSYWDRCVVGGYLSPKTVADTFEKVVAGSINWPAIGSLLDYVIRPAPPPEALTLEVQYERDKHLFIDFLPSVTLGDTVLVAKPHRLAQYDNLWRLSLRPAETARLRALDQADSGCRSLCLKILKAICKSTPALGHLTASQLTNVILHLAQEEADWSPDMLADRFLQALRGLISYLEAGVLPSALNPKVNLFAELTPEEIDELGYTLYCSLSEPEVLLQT

MIEF1^Δ1–48 = biological target: T4, MIEF1^Δ1–48 (UniProt Q9NQG6); test: as above
T4 sequence: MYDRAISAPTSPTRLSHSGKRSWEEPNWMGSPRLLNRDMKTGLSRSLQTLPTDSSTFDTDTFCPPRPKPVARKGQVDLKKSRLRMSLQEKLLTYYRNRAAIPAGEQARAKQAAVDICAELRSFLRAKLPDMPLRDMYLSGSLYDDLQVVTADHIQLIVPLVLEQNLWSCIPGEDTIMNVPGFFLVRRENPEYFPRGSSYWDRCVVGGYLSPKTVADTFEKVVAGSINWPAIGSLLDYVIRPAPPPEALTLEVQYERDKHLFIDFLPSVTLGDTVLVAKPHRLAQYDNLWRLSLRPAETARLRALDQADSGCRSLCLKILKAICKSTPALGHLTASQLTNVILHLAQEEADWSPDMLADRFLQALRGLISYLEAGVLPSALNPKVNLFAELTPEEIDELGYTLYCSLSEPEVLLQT

MIEF2-V5 [6] = biological target: T2, MIEF2-V5; test: as above
MIEF2^Δ151–160 [7] = biological target: T5, MIEF2^Δ151–160 (UniProt Q96C03); test: as above
T5 sequence: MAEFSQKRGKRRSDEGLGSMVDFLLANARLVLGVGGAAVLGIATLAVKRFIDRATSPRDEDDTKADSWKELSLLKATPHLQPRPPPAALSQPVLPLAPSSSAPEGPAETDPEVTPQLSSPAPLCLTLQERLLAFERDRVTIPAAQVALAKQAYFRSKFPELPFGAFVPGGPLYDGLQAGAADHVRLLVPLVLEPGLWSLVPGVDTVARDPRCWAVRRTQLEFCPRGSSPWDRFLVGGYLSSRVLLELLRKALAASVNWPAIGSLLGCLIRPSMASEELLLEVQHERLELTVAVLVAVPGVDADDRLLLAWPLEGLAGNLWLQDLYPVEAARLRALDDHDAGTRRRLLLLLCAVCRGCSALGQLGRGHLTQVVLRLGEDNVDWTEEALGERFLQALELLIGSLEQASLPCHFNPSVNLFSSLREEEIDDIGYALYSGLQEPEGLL

MIEF2^Δ1–49 = biological target: T6, MIEF2^Δ1–49 (UniProt Q96C03); test: as above
T6 sequence: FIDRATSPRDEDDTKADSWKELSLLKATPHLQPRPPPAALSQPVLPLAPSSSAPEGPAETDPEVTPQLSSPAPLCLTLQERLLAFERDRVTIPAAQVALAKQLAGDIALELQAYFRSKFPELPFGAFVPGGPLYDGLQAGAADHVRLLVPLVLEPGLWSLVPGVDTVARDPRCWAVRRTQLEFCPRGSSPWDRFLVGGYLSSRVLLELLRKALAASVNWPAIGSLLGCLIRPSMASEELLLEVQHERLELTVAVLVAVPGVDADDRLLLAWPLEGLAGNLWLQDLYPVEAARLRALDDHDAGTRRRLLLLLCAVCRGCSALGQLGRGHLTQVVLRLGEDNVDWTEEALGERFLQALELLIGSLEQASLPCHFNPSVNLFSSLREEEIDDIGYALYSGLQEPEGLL

MIEF1-V5 [8] = biological target: MIEF1-V5 (UniProt Q9NQG6); test: co-IP; sequential co-IP: 293T co-transfected with MIEF1-V5 and Myc-Mff, cross-linked in vivo with 1% formaldehyde; first anti-V5 beads, elution with V5 peptide, second anti-Myc beads overnight at 4 °C; immunoblot
MIEF1-V5 [9] = biological target: MIEF1-V5 (UniProt Q9NQG6); test: co-IP; 293T transfected with V5-tagged MIEF1 or MIEF2 (wild type or deletion mutants), alone or with Mff plasmid; also after Mff siRNA or Drp1 siRNA; lysates, anti-V5 beads, immunoblot; remark: listed apart in the source
MIEF2-V5 [10] = biological target: T2, MIEF2-V5; test: as above; remark: listed apart in the source
MIEF1^Δ160–169 [11] = biological target: T3, MIEF1^Δ160–169; test: as above; remark: listed apart in the source
MIEF2^Δ151–160 [12] = biological target: T5, MIEF2^Δ151–160; test: as above; remark: listed apart in the source

Molecule: MIEF1, endogenous (from UniProt Q9NQG6 1-463)
binding [1]: binds

Molecule: Drp1 (dynamin-related GTPase), endogenous (from UniProt O00429 1-736)
binding (MIEF1-V5 [2]): binds | binding (MIEF2-V5 [3]): binds | binding (MIEF1-V5 [4]): binds | binding (MIEF1^Δ160–169 [5]): binds weakly | binding (MIEF1^Δ1–48): binds | binding (MIEF2-V5 [6]): binds | binding (MIEF2^Δ151–160 [7]): binds weakly | binding (MIEF2^Δ1–49): binds | binding (MIEF1-V5 [8]): binds

B1: MIEF2, endogenous (protein, UniProt Q96C03 1-454)
chain: MAEFSQKRGKRRSDEGLGSMVDFLLANARLVLGVGGAAVLGIATLAVKRFIDRATSPRDEDDTKADSWKELSLLKATPHLQPRPPPAALSQPVLPLAPSSSAPEGPAETDPEVTPQLSSPAPLCLTLQERLLAFERDRVTIPAAQVALAKQLAGDIALELQAYFRSKFPELPFGAFVPGGPLYDGLQAGAADHVRLLVPLVLEPGLWSLVPGVDTVARDPRCWAVRRTQLEFCPRGSSPWDRFLVGGYLSSRVLLELLRKALAASVNWPAIGSLLGCLIRPSMASEELLLEVQHERLELTVAVLVAVPGVDADDRLLLAWPLEGLAGNLWLQDLYPVEAARLRALDDHDAGTRRRLLLLLCAVCRGCSALGQLGRGHLTQVVLRLGEDNVDWTEEALGERFLQALELLIGSLEQASLPCHFNPSVNLFSSLREEEIDDIGYALYSGLQEPEGLL
binding [1]: binds

B2: Flag-Mff (protein, UniProt Q9GZY8 1-342)
chain: MSKGTSSDTSLGRVSRAAFPSPTAAEMAEISRIQYEMEYTEGISQRMRVPEKLKVAPPNADLEQGFQEGVPNASVIMQVPERIVVAGNNEDVSFSRPADLDLIQSTPFKPLALKTPPRVLTLSERPLDFLDLERPPTTPQNEEIRAVGRLKRERSMSENAVRQNGQLVRNDSLWHRSDSAPRNKISRFQAPISAPEYTVTPSPQQARVCPPHMLPEDGANLSSARGILSLIQSSTRRAYQQILDVLDENRRPVLRGGSAAATSNPHHDNVRYGISNIDTTIEGTSDDLTVVDAASLRRQIIKLNRRLQLLEEENKERAKREMVMYSITVAFWLLNSWLWFRR
binding (MIEF1-V5 [9]): binds | binding (MIEF2-V5 [10]): binds

Now from value to molecule:

binding (MIEF1^Δ160–169 [11]): binds | binding (MIEF2^Δ151–160 [12]): binds
B3: wild-type Mff co-expressed with V5-tagged MIEFs (Fig. 6B) (protein, UniProt Q9GZY8 1-342)
chain: MSKGTSSDTSLGRVSRAAFPSPTAAEMAEISRIQYEMEYTEGISQRMRVPEKLKVAPPNADLEQGFQEGVPNASVIMQVPERIVVAGNNEDVSFSRPADLDLIQSTPFKPLALKTPPRVLTLSERPLDFLDLERPPTTPQNEEIRAVGRLKRERSMSENAVRQNGQLVRNDSLWHRSDSAPRNKISRFQAPISAPEYTVTPSPQQARVCPPHMLPEDGANLSSARGILSLIQSSTRRAYQQILDVLDENRRPVLRGGSAAATSNPHHDNVRYGISNIDTTIEGTSDDLTVVDAASLRRQIIKLNRRLQLLEEENKERAKREMVMYSITVAFWLLNSWLWFRR

binding (MIEF1-V5 [8]): binds
B4: Myc-Mff (protein, UniProt Q9GZY8 1-342)
chain: MSKGTSSDTSLGRVSRAAFPSPTAAEMAEISRIQYEMEYTEGISQRMRVPEKLKVAPPNADLEQGFQEGVPNASVIMQVPERIVVAGNNEDVSFSRPADLDLIQSTPFKPLALKTPPRVLTLSERPLDFLDLERPPTTPQNEEIRAVGRLKRERSMSENAVRQNGQLVRNDSLWHRSDSAPRNKISRFQAPISAPEYTVTPSPQQARVCPPHMLPEDGANLSSARGILSLIQSSTRRAYQQILDVLDENRRPVLRGGSAAATSNPHHDNVRYGISNIDTTIEGTSDDLTVVDAASLRRQIIKLNRRLQLLEEENKERAKREMVMYSITVAFWLLNSWLWFRR
